Results published in the supplement of paper PMC4604168 (melanoma cell lines).
The list shows a part of the results. Single values are uncertain, as repeats are few or missing.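 Cells were imaged in 1,536-well plates, and nuclei stained with an antibody against cleaved PARP were counted against all DNA-stained nuclei to give the apoptosis fraction. Screening doses were chosen to leave most cells alive, and resting and induced cleaved-PARP levels differ strongly between cell lines.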

Legend:
Experiment in all cases: cleaved PARP positive nuclei fraction relative to DMSO control; melanoma cells; higher = more apoptosis
Settings in all cases: library dose: low library concentration; 72 h
[1] = test system: 501Mel
[2] = test system: A101D
[3] = test system: A2058
[4] = test system: A375
[5] = test system: C32
[6] = test system: CBRC008 (line from a melanoma biopsy)
[7] = test system: CBRC014 (line from a melanoma biopsy)
[8] = test system: CBRC016 (line from a melanoma biopsy)
[9] = test system: CBRC017 (line from a melanoma biopsy)
[10] = test system: CBRC034 (line from a melanoma biopsy)
[11] = test system: COLO792
[12] = test system: COLO800
[13] = test system: COLO829
[14] = test system: G361
[15] = test system: IPC-298
[16] = test system: IST-MEL1
[17] = test system: LB2518-MEL
[18] = test system: LOXIMVI
[19] = test system: MEL-HO

| SMILES | cleaved PARP positive nuclei fraction [1] [%] | cleaved PARP positive nuclei fraction [2] [%] | cleaved PARP positive nuclei fraction [3] [%] | cleaved PARP positive nuclei fraction [4] [%] | cleaved PARP positive nuclei fraction [5] [%] | cleaved PARP positive nuclei fraction [6] [%] | cleaved PARP positive nuclei fraction [7] [%] | cleaved PARP positive nuclei fraction [8] [%] | cleaved PARP positive nuclei fraction [9] [%] | cleaved PARP positive nuclei fraction [10] [%] | cleaved PARP positive nuclei fraction [11] [%] | cleaved PARP positive nuclei fraction [12] [%] | cleaved PARP positive nuclei fraction [13] [%] | cleaved PARP positive nuclei fraction [14] [%] | cleaved PARP positive nuclei fraction [15] [%] | cleaved PARP positive nuclei fraction [16] [%] | cleaved PARP positive nuclei fraction [17] [%] | cleaved PARP positive nuclei fraction [18] [%] | cleaved PARP positive nuclei fraction [19] [%] |
| --- | --- | --- | --- | --- | --- | --- | --- | --- | --- | --- | --- | --- | --- | --- | --- | --- | --- | --- | --- |
| CCCCCCCCCCCCCCCCCCOP(=O)([O-])OC1CC[N+](C)(C)CC1 [Perifosine] + COc1ccc(Cl)c(Nc2nc3ccccc3nc2NS(=O)(=O)c2cccc(NC(=O)C(C)(C)N)c2)c1 [XL147] (first compound 0.4 µM, partner dose 0.8 µM) | 76.1 | 95.7 | 73.4 | 104 | 65.4 | 142 | 116 | 113 | 155 | 181 | 142 | 96 | 143 | 86.4 | 57.9 | 223 | 209 | 94.8 | 45.8 |
| Cc1cc(Nc2cc(N3CCN(C)CC3)nc(Sc3ccc(NC(=O)C4CC4)cc3)n2)n[nH]1 [Tozasertib] + NC1(c2ccc(-c3nc4ccn5c(=O)[nH]nc5c4cc3-c3ccccc3)cc2)CCC1 [MK2206] (first compound 0.006 µM, partner dose 0.4 µM) | 109 | 47.6 | 80.1 | 169 | 74.6 | 97.3 | 86.4 | 65.1 | 90 | 83 | 141 | 149 | 110 | 110 | 122 | 45.2 | 126 | 135 | 237 |
| Cc1cn(-c2cc(NC(=O)c3ccc(C)c(Nc4nccc(-c5cccnc5)n4)c3)cc(C(F)(F)F)c2)cn1 [nilotinib] + CO[C@H]1C[C@@H]2CC[C@@H](C)[C@@](O)(O2)C(=O)C(=O)N2CCCC[C@H]2C(=O)O[C@H]([C@H](C)C[C@@H]2CC[C@@H](OCCO)[C@H](OC)C2)CC(=O)[C@H](C)/C=C(\C)[C@@H](O)[C@@H](OC)C(=O)[C@H](C)C[C@H](C)/C=C/C=C/C=C/1C [everolimus] (first compound 0.2 µM, partner dose 0.02 µM) | 427 | 81 | 64.1 | 903 | 85.7 | 181 | 129 | 120 | 120 | 37.9 | 120 | 54.7 | 73.3 | 105 | 170 | 157 | 89.2 | 399 | 116 |
| Cc1ccc(Nc2nccc(N(C)c3ccc4c(C)n(C)nc4c3)n2)cc1S(N)(=O)=O [Pazopanib] + COCC[n+]1c2c(n(Cc3cnccn3)c1C)C(=O)c1ccccc1C2=O [YM155] (first compound 0.4 µM, partner dose 0.0004 µM) | 69.3 | 91 | 81 | 87.1 | 68.3 | 630 | 96.8 | 144 | 76.7 | 42 | 70.6 | 294 | 70.3 | 74.4 | 200 | 144 | 157 | 89.6 | 58.2 |
| O=C(Nc1cc(C(F)(F)F)cc(C(F)(F)F)c1)c1cc(Cl)ccc1O + Clc1ccc(Nc2nnc(Cc3ccncc3)c3ccccc23)cc1 [vatalanib] (first compound 0.016 µM, partner dose 2 µM) | 105 | 103 | 88.6 | 81.5 | 76.1 | 142 | 109 | 96.7 | 121 | 138 | 57.9 | 126 | 97 | 130 | 89.4 | 188 | 95 | 57.5 | 106 |
| CC[C@]1(O)C[C@H]2CN(CCc3c([nH]c4ccccc34)[C@@](C(=O)OC)(c3cc4c(cc3OC)N(C=O)[C@H]3[C@@](O)(C(=O)OC)[C@H](OC(C)=O)[C@]5(CC)C=CCN6CC[C@]43[C@@H]65)C2)C1 [vincristine] + Cn1sc(=O)n(Cc2ccccc2)c1=O [TDZD-8] (first compound 0.0001 µM, partner dose 0.4 µM) | 71 | 89.3 | 178 | 142 | 75.5 | 121 | 189 | 73.9 | 96.8 | 54.2 | 63.1 | 202 | 117 | 134 | 84.5 | 130 | 102 | 203 | 81.6 |
| O=C(/C=C/c1cccnc1)NCCCCC1CCN(C(=O)c2ccccc2)CC1 + COc1ccc(C2=N[C@@H](c3ccc(Cl)cc3)[C@@H](c3ccc(Cl)cc3)N2C(=O)N2CCNC(=O)C2)c(OC(C)C)c1 [Nutlin-3] (first compound 0.01 µM, partner dose 0.1 µM) | 63.7 | 139 | 60 | 59.3 | 214 | 2080 | 114 | 402 | 774 | 1120 | 612 | 179 | 95.2 | 3570 | 233 | 83.9 | 121 | 55 | 322 |
| Cc1cc(Nc2cc(N3CCN(C)CC3)nc(Sc3ccc(NC(=O)C4CC4)cc3)n2)n[nH]1 [Tozasertib] + NC(=O)c1ccc(N(C(N)=O)c2c(F)cccc2F)nc1-c1ccc(F)cc1F [VX702] (first compound 0.006 µM, partner dose 0.4 µM) | 92.4 | 193 | 98.2 | 236 | 87.8 | 24 | 77 | 39.7 | 109 | 72.5 | 29.8 | 192 | 101 | 61.7 | 44.3 | 62 | 116 | 424 | 86.4 |
